Laboratory results: patent US20220105108A1, “PERIVASCULAR ANTI-INFLAMMATORY THERAPY FOR VENOUS THROMBOSIS” (Mercator MedSystems, Inc., priority 2020, published 2022)
“Also recorded” adds a separate entry of the source. At least one compound was matched to its structure with a doubt left.

Legend:
MCP-1 = details: cited from earlier work
IL-10 = details: dexamethasone levels of 1 nM to 100 nM; cited from earlier work
MMP-9 = MMP-9 level in circulating blood after perivascular dexamethasone during femoropopliteal revascularization (DANCE Atherectomy); assay type: in vivo, human; details: 3.2 mg/mL, 0.5 mL per cm of vessel
[1] = DANCE-Pilot study and DANCE trial: adventitial dexamethasone after femoropopliteal revascularization; assay type: in vivo, human
Source text: Provided herein are examples of in vivo human clinical trials using the Bullfrog Micro-Infusion Device for local delivery of dexamethasone. The Bullfrog Micro-Infusion Device was successfully used in the DANCE (Dexamethasone to the Adventitia to Enhance Clinical Efficacy After Femoropopliteal Revascularization)-Pilot study and the DANCE trial in superficial femoral and popliteal arteries.
In the DANCE-Pilot study, 20 subjects were enrolled and treated with the Bullfrog device delivery of dexamethasone sodium phosphate. In the DANCE trial, 283 limbs were enrolled and treated with the Bullfrog device delivery of dexamethasone sodium phosphate. In 3.3% of the subjects enrolled in DANCE, there was no detected contrast medium distribution in the adventitia and perivascular tissues. In one subject in DANCE-Pilot and one subject in DANCE, there was a transient hyperglycemia event reported, which was treated and controlled with insulin therapy. There were no other unexpected adverse device events or suspected unexpected severe adverse reactions reported in the study.
The single-arm DANCE (Dexamethasone to the Adventitia to Enhance Clinical Efficacy After Femoropopliteal Revascularization) trial enrolled 262 subjects (283 limbs) with symptomatic peripheral artery disease (Rutherford category 2 to 4) receiving percutaneous transluminal angioplasty (PTA) (n=124) or atherectomy (ATX) (n=159) in femoropopliteal lesions <15 cm in length. A mixture of dexamethasone/contrast medium (80%/20%) was delivered to the adventitia and perivascular tissues surrounding target lesions in all subjects. Thirty-day assessments included major adverse limb events (MALE) and post-operative death. Twelve-month assessments included primary patency, freedom from clinically driven target lesion revascularization (CD-TLR), Rutherford scoring, and walking impairment questionnaire. […]

[2] = system: deep vein thrombosis (DVT) induced by inferior vena cava (IVC) ligation; test: Thrombus weight and histology of IVC and DVT after perivascular dexamethasone in mouse IVC ligation model; assay type: in vivo
[3] = system: deep vein thrombosis (DVT) induced by inferior vena cava (IVC) ligation; test: RNA analysis (PCR array, inflammation and fibrosis gene panels) of DVT after perivascular dexamethasone in mouse IVC ligation model; assay type: in vivo
TNFα = details: dexamethasone levels of 10 nM to 1 μM; cited from earlier work
[4] = system: endothelial cell migration; details: dexamethasone levels of 1μM; cited from earlier work

## C[C@@H]1C[C@H]2[C@@H]3CCC4=CC(=O)C=C[C@]4(C)[C@@]3(F)[C@@H](O)C[C@]2(C)[C@@]1(O)C(=O)CO [dexamethasone, 9-fluoro-11(beta),17,21-trihydroxy-16(alpha)-methylpregna-1,4-diene-3,20-dione]
MCP-1; dexamethasone levels from 10 nM to 1 μM
  MCP-1 mRNA: degradation of MCP-1 mRNA
MCP-1; dexamethasone levels of 10 nM to 1 μM
  MCP-1, dexamethasone binding sites and binding affinity in cells: increase MCP-1
MCP-1; dexamethasone levels of 50 nM
  inflammatory protein MCP-1 expression: decrease
IL-10
  IL-10 levels: increase IL-10 levels
MMP-9; nearly back to baseline, not seen in controls
  change in MMP-9 between 24 hours and 4 weeks: substantial decrease
MMP-9; p<0.05
  change in MMP-9 level from baseline (pre-procedure) to 24 hours after the procedure: substantial increase
[1]; 1.6 mg dexamethasone per cm of lesion
  patency vs historical data in similar patients: compared favorably
[1]; ATX and PTA groups (ITT), P<0.001
  primary analysis vs 52.5% historical performance goal: superior
[1]; ATX and PTA groups, PP and ITT
  secondary analysis vs 72.3% contemporary performance goal: noninferior
[2]; dexamethasone-treated group, histology, p=0.024
  area of organizing thrombus vs control group: smaller than the control group; also recorded: significantly smaller
[2]; dexamethasone-treated groups
  inflammation in the thrombus, semi-quantitative evaluation, vs control group: less inflammation; also recorded: More severe inflammation was observed in the control group
[2]; histology
  area of organizing thrombus, low dose vs high dose dexamethasone groups: no significant difference
[2]; histology, control, low dose, high dose groups
  IVC vein wall thickness: no significant differences
[2]; semi-quantitative evaluation
  distribution of inflammation in the thrombus: no significant differences
[3]; dexamethasone group vs control, Day 8
  fibrosis-related genes (Acta2, Colla2, Col3a1, MMP2, MMP13, MMP14, Tgfb2, Tgfb3, Timp1) expression: trend in suppressing
[3]; high dose (8 mg/mL) perivascular injection Day 2, sacrifice Day 8
  inflammatory genes (Cc12, Cxcl11, Cxcr3, IL-lb, IL-2, IL-6, IL-18, Nfkb1, Nfkb2) expression vs control group: significantly suppressed
[3]; low dose (3.2 mg/mL) perivascular injection Day 2, sacrifice Day 8
  inflammatory genes (Cc12, Cxcl11, Cxcr3, IL-lb, IL-2, IL-6, IL-18, Nfkb1, Nfkb2) expression vs control group: significantly suppressed
TNFα
  TNFα levels: decrease TNFα levels
[4]
  endothelial cell migration: improve endothelial cell migration
